# Results deposited as PubChem BioAssay AID1053208 (Peter MacCallum Cancer Centre, 2014).
# Aim: 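Find knock-downs that sensitise mouse osteosarcoma cells to doxorubicin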 (primary screen)
# Cells: mouse osteosarcoma cells, early-passage culture from an engineered mouse model of fibroblastic bone tumour
# Knock-down reagent: siRNA pool against mouse genes, 40 nM
# Duration: about 120 h (48 h before drug, then 72 h with drug)
# Challenge: doxorubicin 100 nM for 72 h, roughly 30-40% inhibitory dose
# Detection: 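Viability read as ATP luminescence after 72 h of 100 nM doxorubicin or none, duplicate wells averaged, scaled to non-targeting siRNA, then expressed as robust z-scores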
# Scale: viability z-score with doxorubicin: higher = more viable cells under doxorubicin; viability z-score without drug: higher = more viable cells with knock-down alone
# Active means: 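Called active if knock-down leaves viability unchanged without drug (z within -2 to 2) but lowers it with doxorubicin (z at or under -2)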
# The deposit covers about 17,000 reagents; below is a part drawn at random. In the full data, 788 (4.7%) are marked active. 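Calls rest on z-score classes alone; an extra cut-off of viability at most 70% of control was not applied to them.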 Entries without a mark were called inactive. Further read-outs or replicates are left out here.
The opening 6 records as a preview:
Gene,combined z-score class,viability z-score with doxorubicin,viability z-score without drug
"Pigv (phosphatidylinositol glycan anchor biosynthesis, class V)",no change with or without drug,-1.8,-1.18
Ppip5k1 (diphosphoinositol pentakisphosphate kinase 1),no change with or without drug,0.67,0.67
Rnf40 (ring finger protein 40),no change with or without drug,0,-0.51
Ahcy (S-adenosylhomocysteine hydrolase),no change with or without drug,0.11,-0.34
"Nphs2 (nephrosis 2, podocin)",no change with or without drug,1.01,-0.17
Usp44 (ubiquitin specific peptidase 44),high cell count without drug only,0.67,2.87

Main list, from the start:
Gene,combined z-score class,viability z-score with doxorubicin,viability z-score without drug
"Pigv (phosphatidylinositol glycan anchor biosynthesis, class V)",no change with or without drug,-1.8,-1.18
Ppip5k1 (diphosphoinositol pentakisphosphate kinase 1),no change with or without drug,0.67,0.67
Rnf40 (ring finger protein 40),no change with or without drug,0,-0.51
Ahcy (S-adenosylhomocysteine hydrolase),no change with or without drug,0.11,-0.34
"Nphs2 (nephrosis 2, podocin)",no change with or without drug,1.01,-0.17
Usp44 (ubiquitin specific peptidase 44),high cell count without drug only,0.67,2.87
Trh (thyrotropin releasing hormone),no change with or without drug,-0.9,0.51
Ggt5 (gamma-glutamyltransferase 5),no change with or without drug,0.56,1.35
Arih2 (ariadne RBR E3 ubiquitin protein ligase 2),no change with or without drug,0.45,-0.84
"Tas1r2 (taste receptor, type 1, member 2)",no change with or without drug,-1.57,0.17
Pag1,no change with or without drug,0.45,0.51
Efcab14 (EF-hand calcium binding domain 14),no change with or without drug,0,0.84
Cxcl17 (C-X-C motif chemokine ligand 17),no change with or without drug,0,1.18
4833444G19Rik (RIKEN cDNA 4833444G19 gene),no change with or without drug,0.67,1.69
"Plcd3 (phospholipase C, delta 3)",no change with or without drug,0.56,1.35
Mat2a (methionine adenosyltransferase 2A),low cell count with doxorubicin only (active),-2.36,-0.34
Or10a4 (olfactory receptor family 10 subfamily A member 4),no change with or without drug,-0.45,-1.18
Ccnt2 (cyclin T2),no change with or without drug,0.22,1.18
Cfb (complement factor B),no change with or without drug,1.46,1.85
Golm2 (golgi membrane protein 2),no change with or without drug,0,0.34
Chchd10 (coiled-coil-helix-coiled-coil-helix domain containing 10),no change with or without drug,1.12,0.84
Thoc5 (THO complex 5),high cell count with doxorubicin only,2.02,1.52
"Card19 (caspase recruitment domain family, member 19)",no change with or without drug,-1.12,1.69
"Col1a1 (collagen, type I, alpha 1)",no change with or without drug,-0.56,0.17
Gcfc2 (GC-rich sequence DNA binding factor 2),no change with or without drug,-0.11,-0.51
Best1 (bestrophin 1),no change with or without drug,1.12,1.35
"Serpinb6b (serine (or cysteine) peptidase inhibitor, clade B, member 6b)",no change with or without drug,-0.56,0.17
Trim10 (tripartite motif-containing 10),no change with or without drug,-0.22,0.51
Tex13c3 (TEX13 family member C3),no change with or without drug,1.12,0.67
Fbxo25 (F-box protein 25),no change with or without drug,1.69,1.85
Fbp2 (fructose bisphosphatase 2),no change with or without drug,-1.35,-0.67
Il11 (interleukin 11),no change with or without drug,0.67,1.18
Bmp15 (bone morphogenetic protein 15),no change with or without drug,0.67,-0.84
Gpr157 (G protein-coupled receptor 157),no change with or without drug,1.01,1.52
Or4k5 (olfactory receptor family 4 subfamily K member 5),no change with or without drug,1.01,1.85
Svs4 (seminal vesicle secretory protein 4),no change with or without drug,0.67,1.35
Zfp553 (zinc finger protein 553),no change with or without drug,0.45,0.34
Or12k5 (olfactory receptor family 12 subfamily K member 5),no change with or without drug,0,-0.51
Asxl2 (ASXL transcriptional regulator 2),no change with or without drug,-0.22,-0.17
Rsph9 (radial spoke head 9 homolog (Chlamydomonas)),no change with or without drug,-0.45,0.34
Optn (optineurin),no change with or without drug,1.46,0.84
"Scn3a (sodium channel, voltage-gated, type III, alpha)",no change with or without drug,-0.79,1.18
"Fabp2 (fatty acid binding protein 2, intestinal)",no change with or without drug,1.57,1.18
Mllt1,no change with or without drug,0.11,0.17
Prss39 (serine protease 39),no change with or without drug,0.79,0.17
Lyrm1 (LYR motif containing 1),low cell count with doxorubicin only (active),-4.72,1.52
Prnp (prion protein),no change with or without drug,0.45,-0.17
"Spin4 (spindlin family, member 4)",no change with or without drug,-0.79,0.34
1700009J07Rik (RIKEN cDNA 1700009J07 gene),no change with or without drug,-1.12,1.85
Kif2a (kinesin family member 2A),no change with or without drug,-0.9,1.18
